From article PMC5047748
No constants are given. Whether binding was seen depends on the method and setting. Binding seen in cells or lysates may run through a third protein. For some assays here: Binding can be weak; no strength is given. Values belong to the molecule of their own block, whether it stands above or below them.

How the values were obtained:
Assay in all cases: co-IP; transfected S2R+ cells; RIPA lysis buffer (50 mM Tris pH 7.5, 150 mM NaCl, 1 mM EDTA, 1% NP40, 5% glycerol); 1 µg antibodies 1 hr then Protein A beads 2 hr at 4°C; western blot
[1] = target: T1, Dlish (CG10933), expressed in S2 cells for co-IP (Drosophila melanogaster) (UniProt A1ZAY1)
T1 sequence: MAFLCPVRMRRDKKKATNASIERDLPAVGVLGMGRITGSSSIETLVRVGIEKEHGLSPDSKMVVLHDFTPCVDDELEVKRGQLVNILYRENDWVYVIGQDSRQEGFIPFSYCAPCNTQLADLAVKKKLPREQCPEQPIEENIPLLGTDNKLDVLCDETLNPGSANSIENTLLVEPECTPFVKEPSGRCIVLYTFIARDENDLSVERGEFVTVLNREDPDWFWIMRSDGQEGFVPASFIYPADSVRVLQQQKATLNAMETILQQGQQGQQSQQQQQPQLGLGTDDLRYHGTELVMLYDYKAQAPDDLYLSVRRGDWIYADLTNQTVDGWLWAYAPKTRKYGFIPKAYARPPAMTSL

[2] = target: Dachs, expressed in S2 cells for co-IP (Drosophila melanogaster)
[3] = target: FatΔECD (Drosophila)
[4] = target: FatΔECD-Hippo (Drosophila)
[5] = target: FatΔECD-PH+Hippo (Drosophila)
[6] = target: FatΔECDΔ4-C (Drosophila)
[7] = target: FatΔECDΔN-6 (Drosophila)
[8] = target: Slimb (Drosophila)

binding [1]: binds
Molecule: Dachs, expressed in S2 cells for co-IP (Drosophila melanogaster)

binding [2]: binds | binding [3]: binds | binding [4]: no binding | binding [5]: binds | binding [6]: no binding | binding [7]: binds | binding [8]: binds
B1: Dlish (CG10933), expressed in S2 cells for co-IP (protein, UniProt A1ZAY1 1-355)
chain: T1 sequence
